For some assays here: Part of at least one peptide drawing is inferred or uncertain, most often the ends. Some entries share one result that the patent states for a list of compounds. Ends that are not written are not given here.
How the values were obtained:
Assay type in all cases: cell-based, human
AML14 cells = conditions: FIG. 6B, unit inferred
Protocol: (§1) ST-13 was further examined in various human cancer cell lines, as was a second retro-inverso variant, ST-14. Suspension cells (HL60, AML14, or SET2) were set at a density of 3.5×10^3 cells/well in 150 μL of RPMI+1.5% fetal bovine serum (FBS) in a tissue culture-treated 96 well dish. ATF5 peptide, reconstituted at a concentration of 10 mg/mL in 20 mM His, pH 7.5, was added to each well at a volume of 50 μL to a final concentration range of 0-80 μM. Cells were incubated with peptide for 48 hours at 37° C. Cell viability was quantified by flow cytometry using an Abcam Annexin V FITC apoptosis detection kit. Briefly, cells were washed with PBS and resuspended in 1× assay buffer containing Annexin V FITC and propidium iodide (PI). Cells were analyzed by BD Accuri C6 Plus flow cytometer to detect Annexin V-FITC binding (Ex=488 nm; Em=530 nm) using FITC signal detector, and to detect PI staining using the phycoerythrin emission signal detector. Percentage of Annexin V^low and PI^low were quantified and presented as % Viability. EC50 values were calculated using GraphPad Prism v.7 XML.

SET2 cells = conditions: FIG. 6C, unit inferred
Protocol: as §1

MCF7 cells = conditions: FIG. 6E, unit inferred
Protocol: Additionally, adherent A375, MCF7, U251, DU145, U87, and A549 cells were set at a density of 3.5×10^3 cells/well in 200 μL of media on day −1. On day 0, media was removed and replenished with 150 μL of fresh media, and cells were treated with ATF5 peptide as described. Following a 48-hour incubation at 37° C., floating cells were collected, adherent cells were washed with Dulbecco's Phosphate Buffered Saline (DPBS), dissociated from the dish with 50 μL 2.5% trypsin at RT, and combined with floating cells. Cell viability was determined as described above for suspension cells or by MTT assay (MCF7 cells). Alternatively, cells were gently removed from the cell culture plate following trypsinization with 2.5% trypsin, and cell viability was quantified by flow cytometry using an Abcam Annexin V FITC apoptosis detection kit, as described above.

HL60 cells = assay: HL60 cell viability assay (Annexin V FITC / PI flow cytometry)
Protocol: HL60 PML suspension cells were set at a density of 3.5×10^3 cells/well in 150 μL of RPMI+1.5% fetal bovine serum (FBS) in a 96 well dish. ST-3, reconstituted at a concentration of 10 mg/mL in 20 mM His, pH 7.5, was added to each well at a volume of 50 μL to a final concentration range of 0-80 μM. Cells were incubated with ST-3 for 48 hours at 37° C. Cell viability was quantified by flow cytometry using an Abcam Annexin V FITC apoptosis detection kit. Briefly, cells were washed with PBS and resuspended in 1× assay buffer containing Annexin V FITC and propidium iodide (PI). Annexin V detects apoptotic cells, and PI stains dead cells. After staining, apoptotic cells show green fluorescence, dead cells show red and green fluorescence, and live cells show little or no fluorescence. Cells were selected for analysis based on forward scatter (FSC) vs. side scatter (SSC), and analyzed by BD Accuri C6 Plus flow cytometer to detect Annexin V-FITC binding (Ex=488 nm; Em=530 nm) using FITC signal detector and PI staining by the phycoerythrin emission signal detector. Percentage of Annexin V^low and PI^low were quantified and presented as % Viability. […]
ST-13 was further examined in various human cancer cell lines, as was a second retro-inverso variant, ST-14. […] Cell viability was quantified by flow cytometry using an Abcam Annexin V FITC apoptosis detection kit. […]

Compound	EC50 (AML14 cells) [µM]	EC50 (SET2 cells) [µM]	EC50 (MCF7 cells) [µM]	increase in activity relative to ST-3 (HL60 cells)
CC[C@@H](C)[C@@H](NC(=O)[C@@H](CCCCN)NC(=O)[C@H](NC(=O)[C@@H](Cc1c[nH]c2ccccc12)NC(=O)[C@@H](Cc1ccccc1)NC(=O)[C@@H](CCC(N)=O)NC(=O)[C@@H](CC(N)=O)NC(=O)[C@@H](CCCNC(=N)N)NC(=O)[C@@H](CCCNC(=N)N)NC(=O)[C@@H](CCSC)NC(=O)[C@@H](CCCCN)NC(=O)[C@@H](Cc1c[nH]c2ccccc12)NC(=O)[C@@H](CCCCN)NC(=O)[C@@H](CCCCN)NC(=O)[C@@H](CC(C)C)NC(=O)[C@@H](CCC(=O)O)NC(=O)CNC(=O)[C@@H](CCCNC(=N)N)NC(=O)[C@@H](C)NC(=O)[C@@H](CCC(N)=O)NC(=O)CNC(=O)[C@@H](CC(C)C)NC(=O)[C@@H](CCCNC(=N)N)NC(=O)[C@@H](C)NC(=O)[C@@H](CCC(=O)O)NC(=O)[C@@H](CC(C)C)NC(=O)[C@@H](CCCNC(=N)N)NC(=O)[C@@H](CCC(=O)O)NC(=O)[C@@H](CC(C)C)NC(=O)[C@@H](CCC(=O)O)NC(=O)[C@@H](CCC(=O)O)NC(=O)[C@@H](CCCNC(=N)N)NC(=O)[C@@H](C)NC(=O)[C@@H](CCC(=O)O)NC(=O)[C@@H](C)NC(=O)[C@H](N)C(C)C)[C@H](C)CC)C(=O)N[C@H](CCC(N)=O)C(=O)N[C@H](CCCNC(=N)N)C(=O)O [ST-13]	< 1	17.7	< 1	
RQIKIWFQNRRMKWKKLEGECAGLEARNRELKERAESV [ST-8]				3-6 fold
RQIKIWFQNRRMKWKKLEGECQGLEARLRELKERAESV [ST-7]				3-6 fold

— patent US10525100B2, “ATF5 peptide variants and uses thereof” (Sapience Therapeutics, Inc., priority 2018, dated 2020)
